Source: patent US20260250711A1
Results are given in words; binding and its absence hold for the method and conditions named. Some binding calls cover weakened binding; strength is not graded here.

Sequences of proteins named here, by UniProt entry; tags and fusion partners are left off. A change or cut given only in a name is not applied to a line headed by its entry.
UniProt P28799: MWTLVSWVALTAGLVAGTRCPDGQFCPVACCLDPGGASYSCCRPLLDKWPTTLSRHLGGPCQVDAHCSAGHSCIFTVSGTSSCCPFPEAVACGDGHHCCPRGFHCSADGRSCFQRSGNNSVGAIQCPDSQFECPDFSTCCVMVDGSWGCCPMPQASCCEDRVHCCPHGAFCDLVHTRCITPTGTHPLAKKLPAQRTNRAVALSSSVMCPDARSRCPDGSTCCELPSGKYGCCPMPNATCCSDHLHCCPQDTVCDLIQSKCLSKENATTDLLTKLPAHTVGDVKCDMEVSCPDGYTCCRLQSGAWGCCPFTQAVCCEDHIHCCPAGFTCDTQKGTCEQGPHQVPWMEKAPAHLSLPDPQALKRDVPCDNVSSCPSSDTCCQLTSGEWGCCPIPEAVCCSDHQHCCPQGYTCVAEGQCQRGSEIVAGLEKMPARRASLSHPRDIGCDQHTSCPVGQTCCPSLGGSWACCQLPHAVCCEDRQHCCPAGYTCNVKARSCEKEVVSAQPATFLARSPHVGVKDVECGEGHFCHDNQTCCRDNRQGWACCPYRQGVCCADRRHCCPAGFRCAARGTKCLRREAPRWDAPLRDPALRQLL

Key:
[1] = biological target: T1, human prosaposin (PSAP), recombinant protein (human) (UniProt P07602); experiment: Biacore (SPR), His-tagged PGRN over immobilized human prosaposin
T1 sequence (looked up): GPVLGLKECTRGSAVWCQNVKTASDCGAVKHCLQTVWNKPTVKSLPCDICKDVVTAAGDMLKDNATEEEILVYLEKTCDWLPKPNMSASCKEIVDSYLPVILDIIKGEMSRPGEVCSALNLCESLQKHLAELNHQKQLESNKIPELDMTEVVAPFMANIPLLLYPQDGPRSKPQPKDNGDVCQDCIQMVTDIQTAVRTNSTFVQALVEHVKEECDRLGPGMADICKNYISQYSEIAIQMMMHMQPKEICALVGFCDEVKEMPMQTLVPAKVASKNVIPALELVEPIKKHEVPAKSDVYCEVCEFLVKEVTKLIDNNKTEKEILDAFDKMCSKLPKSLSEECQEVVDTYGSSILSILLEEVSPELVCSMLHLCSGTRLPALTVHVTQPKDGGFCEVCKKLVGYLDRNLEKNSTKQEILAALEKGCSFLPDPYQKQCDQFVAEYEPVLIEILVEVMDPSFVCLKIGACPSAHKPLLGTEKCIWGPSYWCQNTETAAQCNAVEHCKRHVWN

[2] = biological target: T1, human prosaposin (PSAP), recombinant protein (human); experiment: Biacore sensorgrams, immobilized human PSAP from two sources
[3] = biological target: T1, human prosaposin (PSAP), recombinant protein (human); experiment: Biacore (SPR), His-tagged PGRNΔ3 over immobilized human prosaposin from two sources

| binding [1] | binding [2] | binding [3] | Substance |
| --- | --- | --- | --- |
| binds | binds |  | recombinant human His-tagged full-length wild-type progranulin (PGRNwt) (from UniProt P28799 18-593) (ligand) |
|  | binds | binds | recombinant human His-tagged progranulin lacking the final three carboxy-terminal amino acids (PGRNΔ3) (from UniProt P28799 18-590) (ligand) |
